This passage reports binding result and functional effect results from patent US20210186964.

Series [1] deals with USP1-Trunc deletion of regions not conserved with USP12 (includes 270-307) (UniProt O94782). The series is described as follows: EMSA. The settings on record: 0-200 nM USP1-Trunc; purified recombinant protein; protein details: made in SF9 cells or E. coli; label: Cy3; folded or branched DNA. A general note: In EMSA bound probe runs differently from free probe, usually more slowly.

Series [2] has as its system USP1-Trunc/UAF1 complex USP1 deletion of regions not conserved with USP12 (includes 270-307). The experiment in a line: activity assay. Particulars: Ub-CHOP2, DNA does not stimulate DUB activity, purified recombinant protein, label: Cy3.
For a further series, the system named is USP1/UAF1 complex. The experiment in a line: activity assay. The settings on record: purified recombinant protein, protein details: SF9-made, R&D systems or Boston Biochem, label: Cy3.
A further series addresses T1, USP1 (UniProt O94782).
T1 sequence (limits assumed): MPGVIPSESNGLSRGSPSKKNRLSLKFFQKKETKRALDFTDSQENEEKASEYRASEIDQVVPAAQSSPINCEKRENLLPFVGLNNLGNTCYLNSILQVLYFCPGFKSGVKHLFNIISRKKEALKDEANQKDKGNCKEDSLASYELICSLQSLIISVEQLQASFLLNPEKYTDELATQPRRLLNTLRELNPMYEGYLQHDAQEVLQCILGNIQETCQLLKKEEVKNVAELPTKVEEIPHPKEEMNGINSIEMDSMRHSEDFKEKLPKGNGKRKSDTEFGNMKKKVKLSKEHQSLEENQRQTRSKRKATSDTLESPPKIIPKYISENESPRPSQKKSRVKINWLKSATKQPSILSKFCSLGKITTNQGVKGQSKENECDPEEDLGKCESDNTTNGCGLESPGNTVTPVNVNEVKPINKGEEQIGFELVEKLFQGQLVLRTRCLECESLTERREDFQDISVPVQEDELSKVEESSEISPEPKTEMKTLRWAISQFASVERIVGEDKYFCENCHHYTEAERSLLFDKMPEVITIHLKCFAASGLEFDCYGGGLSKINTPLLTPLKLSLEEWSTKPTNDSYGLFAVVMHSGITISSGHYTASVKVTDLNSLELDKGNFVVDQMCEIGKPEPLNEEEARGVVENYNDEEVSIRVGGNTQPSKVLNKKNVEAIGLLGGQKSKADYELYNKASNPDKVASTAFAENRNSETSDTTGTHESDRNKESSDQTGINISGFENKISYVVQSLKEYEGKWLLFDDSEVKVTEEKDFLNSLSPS
The series is described as follows: EMSA. Particulars: 300 nM USP1; shift weaker than fork DNA; purified recombinant protein; protein details: SF9-made or R&D systems E564; label: Cy3.

For some assays here: The comparison behind a weaker result is the experiment's own reference, which may not be listed here. For some assays here: Tags and fusion partners may be left off the protein sequences shown. For some assays here: The exact form of at least one protein or probe is not confirmed. For some assays here: No signal at the amounts used counts as a negative.

For “CCAGTGAATTGTTGCTCGGTACCTGCTAACGGTAATCGG / CAGCTATGGGACATTCGATACCGAGCAACAATTCACTGG [40-mer fork DNA]”, the binding result in series [1] is listed as “no binding”. The functional effect entry in series [2] (folded or branched DNA) is recorded as “not active”; in the series with USP1/UAF1 complex (DUB activity stimulated, saturating at 1:1, Ub-AMC Km 0.79 to 0.33 uM, kcat up 1.3 fold, folded or branched DNA), “active”.
Consider “CCAGTGAATTGTTGCTCGGTACCTGCTAACGGTAATCGG [40-mer ssDNA (top)]”, for which the functional effect result in series [2] (single-stranded DNA) was “not active”; with USP1/UAF1 complex (Ub-CHOP2 DUB activity stimulated vs no DNA, p<0.0001, single-stranded DNA) it was “active”.
As to “CCAGTGAATTGTTGCTCGGTACCTGCTAACGGTAATCGG (double strand) [40-mer dsDNA]”, in the series with USP1, the binding result is “binds more weakly”. Moreover, the functional effect result in series [2] is reported as “not active”; in the series with USP1/UAF1 complex (Ub-CHOP2 DUB activity maximally stimulated, p<0.0001), “active”.
